Assay results published in PubChem BioAssay AID493014 (National Center for Advancing Translational Sciences (NCATS), 2011).
This is one part of the list. Further columns of the screen follow, without active or inactive calls. Compounds called inactive in the main read-out are mostly missing here. The note in brackets gives the kind of curve behind each potency; many fits are weak.

Test: qHTS Assay to Find Inhibitors of Chronic Active B-Cell Receptor Signaling
Conditions: ABC-DLBCL IkBa-CBG/CBR reporter, luminescence ratio (green luciferase fused to IkBa over red control in TMD8 lymphoma cells), 4 h
How it was run: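 Cell line TMD8 (human ABC DLBCL), stably expressing tet-inducible CBG68-IkBa fusion and CBR; IMDM/0.5% FBS; cpd up to 46 uM; dox induction, 4 h, 37C/5% CO2; dual luminescence; green/red ratio; MG132 control.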

[1] = measured here: CBR red luminescence, cell number
[2] = measured here: IkBa-CBG green luminescence

| Compound | AC50 [1] | AC50 [2] |
| --- | --- | --- |
| COc1ccc(NCc2nnc(SCC(=O)NCc3ccccc3)n2-c2ccccc2OC)cc1 | 16.4 µM [falling, partial curve, poor fit] | – |
| COc1ccccc1Nc1nc2ccc(C)cc2n2cnnc12 | 2 µM [rising, full curve] | – |
| COC(=O)CNC(c1ccccc1)c1cc(C)ccc1NC(=O)c1cccc(Cl)c1 (centres undefined) | 20.6 µM [falling, single point] | – |
| CCCn1c(O)c(/C=C2\C=NN=C2c2ccccc2)sc1=S | 0.708 µM [falling, full curve] | – |
| O=C(CSc1ccccc1)Nc1ccc2c(c1)OCCO2 | 15.8 µM [falling, single point] | – |
| Cc1ccc(C(=O)Nc2cccc(C(=O)O)c2)cc1 | 1.84 µM [falling, full curve] | 16.4 µM [rising, partial curve, poor fit] |
| CCCOc1ccccc1C1CC(=O)Nc2cc3c(cc21)OCCO3 (centres undefined) | 20.6 µM [rising, partial curve] | 16.4 µM [falling, partial curve] |
| COc1cccc(OC)c1C(=O)Nc1nc2ccc([N+](=O)[O-])cc2s1 | 15.8 µM [falling, single point] | – |
| O=C(Nc1cccnc1)c1cnn2cccnc12 | 3.66 µM [falling, single point] | – |
| Cc1ccccc1C(=O)NNC(=S)NC(=O)c1ccc(Cl)cc1Cl | 20.6 µM [falling, partial curve, poor fit] | – |
| COc1ccccc1CC(=O)Nc1ccc(S(=O)(=O)N2CC(C)CC(C)C2)cc1 (centres undefined) | 4.11 µM [falling, full curve] | – |
| CCOC(=O)c1ccc(Nc2nc(C(=O)OCC)nc3ccccc23)cc1 | 35.5 µM [falling, single point] | – |
| CCC(=O)Nc1cccc(-n2nnnc2SCC(=O)c2ccc(C)c(C)c2)c1 | 3.26 µM [rising, partial curve, poor fit] | – |
| O=C(Cn1cnc2ccccc2c1=O)NCC(=O)N1CCOCC1 | 35.5 µM [rising, single point] | – |
| O=C(CNS(=O)(=O)c1ccccc1)NCC(=O)OCc1ccc(C(=O)c2ccccc2)cc1 | 16.4 µM [rising, partial curve, poor fit] | – |
| Cc1ccc(C)c(CN2C(=O)c3ccccc3S(=O)(=O)c3ccc(C(=O)N4CCN(C)CC4)cc32)c1 | 15.8 µM [falling, single point] | – |
| Cc1ccc(-n2ncc3c(N4CCC(C)CC4)ncnc32)cc1C | 0.891 µM [rising, full curve, poor fit] | – |
| O=c1cc(N2CCCCC2)c(-c2ccccc2)nn1Cc1ccc(Cl)cc1Cl | 5.62 µM [rising, single point] | – |
| CCCc1nn(C)c(C(=O)Nc2cccc3ccccc23)c1Cl | 18.4 µM [falling, partial curve] | – |
| N#CC1=C(N)Nc2nc3ccccc3n2C1c1ccc(F)cc1 (centres undefined) | 29.1 µM [falling, single point] | – |
| CC(C)(C)c1ccc(-c2noc(-c3ccno3)n2)cc1 | 25.1 µM [rising, partial curve, poor fit] | – |
| CCOc1ccccc1NC(=O)CSc1nnc(Cc2cccn2C)n1-c1ccc(F)cc1 | 2.31 µM [falling, partial curve] | – |

| Compound | AC50 [1] | AC50 [2] |
| --- | --- | --- |
| CCOc1cc(/C=C2\SC(=Nc3ccc(F)cc3)N(c3ccc(F)cc3)C2=O)ccc1OCC(=O)O | 8.91 µM [falling, partial curve, poor fit] | – |
| CCCCC(=O)Nc1cccc(NC(=O)c2ccc(Br)o2)c1 | 1.3 µM [falling, partial curve, poor fit] | – |
| O=C(OCc1ccco1)c1ccc(S(=O)(=O)N2CCCCC2)cc1 | 5.17 µM [rising, partial curve] | – |
| COc1cccc(-c2ccc3ncnc(NCc4cc(C)cs4)c3c2)c1 | 29.1 µM [falling, single point] | – |
| Cc1cccc(-c2nc3ccccc3c(=O)n2NC(=O)c2cccs2)c1 | 29.1 µM [rising, single point] | – |
| CCOC(=O)C1=C(O)CCn2c1nc1ccccc12 | 3.26 µM [falling, full curve] | – |
| Cc1ccc(Cl)cc1N1CCN(C(=S)NCCc2ccccc2)CC1 | 20 µM [falling, single point] | – |
| COc1ccc(-c2sc(Nc3ccccc3)n[n+]2-c2ccc(F)cc2)c(C)c1C | 2.82 µM [falling, full curve] | – |
| COc1ccc(-n2nc3c(c2NC(=O)c2c(F)cccc2Cl)CS(=O)C3)cc1 (centres undefined) | 2.31 µM [rising, single point] | – |
| Cc1c(CCNS(=O)(=O)c2ccccc2)sc2nc(-c3ccc(Cl)cc3)nn12 | 22.4 µM [falling, partial curve] | 20 µM [rising, partial curve, poor fit] |
| CN1CCN(c2ccc(NC(=O)c3ccc4c(c3)OCCO4)cc2Cl)CC1 | 22.4 µM [falling, single point] | – |
| O=C(N/N=C/c1ccoc1)c1ccccc1 | 7.08 µM [falling, partial curve] | – |
| CC1CCC2(CC1)NC(=O)N(CC(=O)c1cn(CCC#N)c3ccccc13)C2=O (centres undefined) | 5.62 µM [falling, full curve, poor fit] | – |
| COc1ccc(S(=O)(=O)N(C(=O)c2ccco2)c2cc3sc(=O)oc3c3ccccc23)cc1 | 29.1 µM [falling, single point] | – |
| COc1ccc(NC(=O)Nc2cccc(C)n2)c(OC)c1 | 1.41 µM [rising, full curve] | – |
| N#C/C(=C\c1ccc(OCc2ccc(C(=O)O)cc2)cc1)C(=O)N1CCOCC1 | 20.6 µM [falling, partial curve] | – |
| COc1ccc(-c2nc(CSCC(=O)NCc3ccco3)c(C)o2)cc1 | 35.5 µM [falling, single point] | – |
| O=C1CN(C(=O)COC(=O)c2ccc(Cl)cc2)c2ccccc2N1 | 1.64 µM [rising, full curve] | – |
| COCC1CCN(C(=O)C2CCN(c3nc(-c4ccccc4)nc4c3CCC4)CC2)C1 (centres undefined) | 20 µM [falling, single point] | – |
| CCC1(CC)Cc2ccccc2C(C2=C(O)CC(C)(C)CC2=O)=N1 | 5.8 µM [rising, partial curve] | – |
| Cc1cccc(NC(=O)NC(C)CCc2ccccc2)c1 (centres undefined) | 0.00517 µM [rising, full curve, poor fit] | – |
| O=C(CCc1ccccc1)Nc1ccc2c(c1)OCCO2 | 11.2 µM [falling, partial curve] | – |

| Compound | AC50 [1] | AC50 [2] |
| --- | --- | --- |
| NC(=O)COc1ccc(C(=O)/C=C2/C(=O)Nc3ccccc32)cc1 | 7.94 µM [falling, partial curve, poor fit] | – |
| C(=Nc1ccc(N2CCOCC2)cc1)c1c[nH]c2ccccc12 | 0.1 µM [rising, full curve, poor fit] | – |
| CCc1ccc(OCCOC(=O)Nc2ccccc2)cc1 | 35.5 µM [rising, single point] | – |
| Nc1ccc(SC(F)(F)F)cc1 | 3.55 µM [falling, partial curve, poor fit] | – |
| O=C(Nc1ccc(F)c([N+](=O)[O-])c1)C(=O)c1c(O)[nH]c2ccccc12 | 1.26 µM [falling, full curve] | – |
| C/C(Cn1cnc([N+](=O)[O-])n1)=N\NC(=O)c1cccnc1 | 18.4 µM [falling, single point] | – |
| COc1ccc(NCc2nc3ccccc3n2CCOc2ccc(C)cc2)cc1 | 3.66 µM [falling, full curve] | – |
| COc1ccc(C(=O)/C=C/C(=O)N(Cc2ccc3c(c2)OCO3)C(C(=O)NC2CCCCC2)c2ccncc2)c(O)c1 (centres undefined) | 29.1 µM [falling, single point] | – |
| Cc1ccccc1SCC(=O)Nc1cccc(C#N)c1 | 14.6 µM [rising, partial curve, poor fit] | – |
| CCOc1cccc(CNCCO)c1OCc1ccc(Cl)cc1Cl | 23.1 µM [falling, partial curve, poor fit] | – |
| CCCCc1nnc(NC(=O)C2=COCCO2)s1 | 22.4 µM [falling, single point] | – |
| c1ccc(Nc2ccccc2)cc1 | 29.1 µM [rising, single point] | – |
| COC(=O)Nc1ccc(S(=O)(=O)Nc2ccc(C)cc2)cc1 | 29.1 µM [falling, single point] | – |
| O=C(CC1S/C(=N/N=C/c2ccco2)NC1=O)Nc1ccccc1 (centres undefined) | 10 µM [rising, partial curve, poor fit] | – |
| O=C(c1ccc2c(c1)OCO2)N1CCC2(CC1)Oc1ccc(Cl)cc1C(=O)C21CC(c2cccnc2)=NO1 (centres undefined) | 17.8 µM [falling, single point] | – |
| COc1ccc(O)c(-c2nc(N)nc(N)n2)c1 | 10.3 µM [falling, partial curve] | 8.2 µM [rising, partial curve, poor fit] |
| Nc1ccccc1SCc1cn2ccccc2n1 | 4.61 µM [rising, single point] | – |
| O=C(N/N=C/c1ccc2c(c1)OCCO2)c1ccncc1 | 12.6 µM [falling, partial curve] | – |
| CC(C)(C)c1ccc(C(=O)Oc2ccc3c(c2)OCC3=O)cc1 | 18.4 µM [rising, single point] | – |
| Cc1nn(C(C)C(=O)NNC(=S)Nc2ccc(Cl)cc2)c(C)c1[N+](=O)[O-] (centres undefined) | 16.4 µM [rising, single point] | – |
| COc1ccc(-c2cc(-c3ccc(OC)c(OC)c3)n[nH]2)c(O)c1 | 16.4 µM [falling, partial curve] | – |
